According to publication PMC8523568:
Results are given in words; binding and its absence hold for the method and conditions named. In cells and extracts the contact can be indirect. These calls come from enrichment with a bait or labelling near it, and not all partners need be listed. For part of these data: A no says only that the protein was not detected with the bait. Where a sequence is shown, tags or fusion partners need not be part of it. Blank lines part the entries; values can stand above or below the molecule they belong to.

Experiments:
[1] = biological target: T1, human CaSR with FLAG-tag (FLAG-hCaSR) (human) (UniProt P41180); assay: affinity purification with mass spectrometry; as a1, only the samples of cells treated with 2 mM EGTA for 2 h (extracellular Ca2+ chelated)
T1 sequence: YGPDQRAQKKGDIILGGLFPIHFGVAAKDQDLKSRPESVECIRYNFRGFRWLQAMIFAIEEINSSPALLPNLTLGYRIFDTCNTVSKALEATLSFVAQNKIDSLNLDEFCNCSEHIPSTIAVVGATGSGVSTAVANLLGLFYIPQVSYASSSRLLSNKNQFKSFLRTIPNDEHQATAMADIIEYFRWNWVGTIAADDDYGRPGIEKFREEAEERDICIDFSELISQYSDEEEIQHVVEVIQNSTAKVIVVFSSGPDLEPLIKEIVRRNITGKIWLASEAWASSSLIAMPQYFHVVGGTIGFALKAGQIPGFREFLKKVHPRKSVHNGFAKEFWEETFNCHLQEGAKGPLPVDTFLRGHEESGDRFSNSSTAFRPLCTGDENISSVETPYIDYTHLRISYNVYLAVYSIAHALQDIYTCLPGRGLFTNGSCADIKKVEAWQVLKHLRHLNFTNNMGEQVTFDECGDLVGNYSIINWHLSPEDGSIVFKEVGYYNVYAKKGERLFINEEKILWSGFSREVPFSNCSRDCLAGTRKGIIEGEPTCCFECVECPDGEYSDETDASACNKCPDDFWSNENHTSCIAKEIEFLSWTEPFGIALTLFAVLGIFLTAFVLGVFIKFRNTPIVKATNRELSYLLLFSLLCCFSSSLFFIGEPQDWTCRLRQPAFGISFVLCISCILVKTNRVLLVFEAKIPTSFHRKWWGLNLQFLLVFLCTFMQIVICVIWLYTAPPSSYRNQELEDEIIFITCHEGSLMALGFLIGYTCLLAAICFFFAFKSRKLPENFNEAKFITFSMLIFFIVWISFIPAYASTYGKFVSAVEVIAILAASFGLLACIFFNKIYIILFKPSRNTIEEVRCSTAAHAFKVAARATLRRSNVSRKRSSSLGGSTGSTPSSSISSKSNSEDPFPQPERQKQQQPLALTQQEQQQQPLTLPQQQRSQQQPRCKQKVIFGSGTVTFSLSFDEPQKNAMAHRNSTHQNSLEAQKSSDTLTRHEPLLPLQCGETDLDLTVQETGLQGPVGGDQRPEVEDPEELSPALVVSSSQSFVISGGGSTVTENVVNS

[2] = biological target: T1, human CaSR with FLAG-tag (FLAG-hCaSR) (human); assay: affinity purification with mass spectrometry; anti-FLAG M2 on Protein G Dynabeads, 1.0 mg cleared lysate (1% Triton X-100, 150 mM NaCl, Tris pH 7.4) of HEK293 cells transfected with FLAG-hCaSR or empty pcDNA3.1, 10 h at 4 °C; cells serum-starved, then treated with 4 mM Ca2+ or 2 mM EGTA for 2 h; on-bead digestion, LC-MS/MS, triplicates; hits at least twofold over the negative control, P ≤ 0.05
[3] = biological target: T1, human CaSR with FLAG-tag (FLAG-hCaSR) (human); assay: as above; remark: listed apart in the source

binding [3]: binds
B2: TBL2 (protein, UniProt Q9Y4P3 1-447)
chain: MELSQMSELMGLSVLLGLLALMATAAVARGWLRAGEERSGRPACQKANGFPPDKSSGSKKQKQYQRIRKEKPQQHNFTHRLLAAALKSHSGNISCMDFSSNGKYLATCADDRTIRIWSTKDFLQREHRSMRANVELDHATLVRFSPDCRAFIVWLANGDTLRVFKMTKREDGGYTFTATPEDFPKKHKAPVIDIGIANTGKFIMTASSDTTVLIWSLKGQVLSTINTNQMNNTHAAVSPCGRFVASCGFTPDVKVWEVCFGKKGEFQEVVRAFELKGHSAAVHSFAFSNDSRRMASVSKDGTWKLWDTDVEYKKKQDPYLLKTGRFEEAAGAAPCRLALSPNAQVLALASGSSIHLYNTRRGEKEECFERVHGECIANLSFDITGRFLASCGDRAVRLFHNTPGHRAMVEEMQGHLKRASNESTRQRLQQQLTQAQETLKSLGALKK

binding [3]: binds
B3: PTPN1 (protein, UniProt P18031 1-435)
chain: MEMEKEFEQIDKSGSWAAIYQDIRHEASDFPCRVAKLPKNKNRNRYRDVSPFDHSRIKLHQEDNDYINASLIKMEEAQRSYILTQGPLPNTCGHFWEMVWEQKSRGVVMLNRVMEKGSLKCAQYWPQKEEKEMIFEDTNLKLTLISEDIKSYYTVRQLELENLTTQETREILHFHYTTWPDFGVPESPASFLNFLFKVRESGSLSPEHGPVVVHCSAGIGRSGTFCLADTCLLLMDKRKDPSSVDIKKVLLEMRKFRMGLIQTADQLRFSYLAVIEGAKFIMGDSSVQDQWKELSHEDLEPPPEHIPPPPRPPKRILEPHNGKCREFFPNHQWVKEETQEDKDCPIKEEKGSPLNAAPYGIESMSQDTEVRSRVVGGSLRGAQAASPAKGEPSLPEKDEDHALSYWKPFLVNMCVATVLTAGAYLCYRFLFNSNT

binding [3]: binds
B5: RPN1 (protein, UniProt P04843 24-607)
chain: ASSEAPPLINEDVKRTVDLSSHLAKVTAEVVLAHLGGGSTSRATSFLLALEPELEARLAHLGVQVKGEDEEENNLEVRETKIKGKSGRFFTVKLPVALDPGAKISVIVETVYTHVLHPYPTQITQSEKQFVVFEGNHYFYSPYPTKTQTMRVKLASRNVESYTKLGNPTRSEDLLDYGPFRDVPAYSQDTFKVHYENNSPFLTITSMTRVIEVSHWGNIAVEENVDLKHTGAVLKGPFSRYDYQRQPDSGISSIRSFKTILPAAAQDVYYRDEIGNVSTSHLLILDDSVEMEIRPRFPLFGGWKTHYIVGYNLPSYEYLYNLGDQYALKMRFVDHVFDEQVIDSLTVKIILPEGAKNIEIDSPYEISRAPDELHYTYLDTFGRPVIVAYKKNLVEQHIQDIVVHYTFNKVLMLQEPLLVVAAFYILFFTVIIYVRLDFSITKDPAAEARMKVACITEQVLTLVNKRIGLYRHFDETVNRYKQSRDISTLNSGKKSLETEHKALTSEIALLQSRLKTEGSDLCDRVSEMQKLDAQVKELVLKSAVEAERLVAGKLKKDTYIENEKLISGKRQELVTKIDHILDAL

binding [3]: binds
B7: PRDX1 (protein, UniProt Q06830 1-199)
chain: MSSGNAKIGHPAPNFKATAVMPDGQFKDISLSDYKGKYVVFFFYPLDFTFVCPTEIIAFSDRAEEFKKLNCQVIGASVDSHFCHLAWVNTPKKQGGLGPMNIPLVSDPKRTIAQDYGVLKADEGISFRGLFIIDDKGILRQITVNDLPVGRSVDETLRLVQAFQFTDKHGEVCPAGWKPGSDTIKPDVQKSKEYFSKQK

The next lines start with the molecule.

Molecule: GNAI (Gαi) (human (endogenous in HEK293))
binding [1]: no binding (only cells treated with 2 mM EGTA) | binding [2]: binds

B1: GANAB (protein, UniProt Q14697 29-944)
chain: ITLAVDRSNFKTCEESSFCKRQRSIRPGLSPYRALLDSLQLGPDSLTVHLIHEVTKVLLVLELQGLQKNMTRFRIDELEPRRPRYRVPDVLVADPPIARLSVSGRDENSVELTMAEGPYKIILTARPFRLDLLEDRSLLLSVNARGLLEFEHQRAPRVSQGSKDPAEGDGAQPEETPRDGDKPEETQGKAEKDEPGAWEETFKTHSDSKPYGPMSVGLDFSLPGMEHVYGIPEHADNLRLKVTEGGEPYRLYNLDVFQYELYNPMALYGSVPVLLAHNPHRDLGIFWLNAAETWVDISSNTAGKTLFGKMMDYLQGSGETPQTDVRWMSETGIIDVFLLLGPSISDVFRQYASLTGTQALPPLFSLGYHQSRWNYRDEADVLEVDQGFDDHNLPCDVIWLDIEHADGKRYFTWDPSRFPQPRTMLERLASKRRKLVAIVDPHIKVDSGYRVHEELRNLGLYVKTRDGSDYEGWCWPGSAGYPDFTNPTMRAWWANMFSYDNYEGSAPNLFVWNDMNEPSVFNGPEVTMLKDAQHYGGWEHRDVHNIYGLYVHMATADGLRQRSGGMERPFVLARAFFAGSQRFGAVWTGDNTAEWDHLKISIPMCLSLGLVGLSFCGADVGGFFKNPEPELLVRWYQMGAYQPFFRAHAHLDTGRREPWLLPSQHNDIIRDALGQRYSLLPFWYTLLYQAHREGIPVMRPLWVQYPQDVTTFNIDDQYLLGDALLVHPVSDSGAHGVQVYLPGQGEVWYDIQSYQKHHGPQTLYLPVTLSSIPVFQRGGTIVPRWMRVRRSSECMKDDPITLFVALSPQGTAQGELFLDDGHTFNYQTRQEFLLRRFSFSGNTLVSSSADPEGHFETPIWIERVVIIGAGKPAAVVLQTKGSPESRLSFQHDPETSVLVLRKPGINVASDWSIHLR
binding [3]: binds

B4: DDOST (protein, UniProt P39656 43-456)
chain: SGPRTLVLLDNLNVRETHSLFFRSLKDRGFELTFKTADDPSLSLIKYGEFLYDNLIIFSPSVEDFGGNINVETISAFIDGGGSVLVAASSDIGDPLRELGSECGIEFDEEKTAVIDHHNYDISDLGQHTLIVADTENLLKAPTIVGKSSLNPILFRGVGMVADPDNPLVLDILTGSSTSYSFFPDKPITQYPHAVGKNTLLIAGLQARNNARVIFSGSLDFFSDSFFNSAVQKAAPGSQRYSQTGNYELAVALSRWVFKEEGVLRVGPVSHHRVGETAPPNAYTVTDLVEYSIVIQQLSNGKWVPFDGDDIQLEFVRIDPFVRTFLKKKGGKYSVQFKLPDVYGVFQFKVDYNRLGYTHLYSSTQVSVRPLQHTQYERFIPSAYPYYASAFSMMLGLFIFSIVFLHMKEKEKSD
binding [3]: binds

B6: GPALPP1 (protein, UniProt Q8IXQ4 1-340)
chain: MARDLIGPALPPGFKARGTAEDEERDPSPVAGPALPPNYKSSSSDSSDSDEDSSSLYEEGNQESEEDDSGPTARKQRKNQDDDDDDDDGFFGPALPPGFKKQDDSPPRPIIGPALPPGFIKSTQKSDKGRDDPGQQETDSSEDEDIIGPMPAKGPVNYNVTTEFEKRAQRMKEKLTKGDDDSSKPIVRESWMTELPPEMKDFGLGPRTFKRRADDTSGDRSIWTDTPADRERKAKETQEARKSSSKKDEEHILSGRDKRLAEQVSSYNESKRSESLMDIHHKKLKSKAAEDKNKPQERIPFDRDKDLKVNRFDEAQKKALIKKSRELNTRFSHGKGNMFL
binding [3]: binds
